We go through one molecule from publication PMC5374619, “The synthetic peptide CIGB-300 modulates CK2-dependent signaling pathways affecting the survival and chemoresistance of non-small cell lung cancer cell lines” (Cancer Cell International, 2017).

For the experiment, the system named is A549 cells. In words: Cell viability, MTS assay, monolayer. Type of experiment: cell-based, human. Conditions: 72 h treatment, R package ic50. As to the method: We used two human non-small cell lung cancer (NSCLC) derived cell lines: the adenosquamous cell carcinoma NCI-H125 (CRL-5801) and the adenocarcinoma NIH-A549 (CCL-185). The murine L Wnt-3A cell line (CRL-2647) was used in order to produce conditioned media (CM) containing the wnt3a factor, following ATCC’s instructions. All cell lines were obtained from ATCC. H125 was grown in RPMI medium supplemented with 10% FBS and 80 µg/ml gentamycin. A549 and L cells were grown in DMEM media, with the above mentioned supplementation. All cell lines were cultured at 37 °C in a humidified air atmosphere with 5% CO2.
To assess the effect of CIGB-300 or cisplatin on cell viability, 1 × 10^4 cells/well were seeded into 96 well plates in standard culture conditions. […] Cell proliferation was evaluated after 72 h using the MTS assay (Celltiter 96TM Non Radioactive Proliferation Assay, Promega), as described by the manufacturer. Data were analyzed using the R package “ic50” [33] in order to determine the IC50 values for each drug. Alternatively, proliferative potential was determined by assessing cell number. Briefly, cells were seeded onto 35 mm Petri dishes, treated and after 72 h wells were washed twice with PBS, trypsinized, centrifuged, resuspended in a proper volume and finally counted using an hemocytometer and trypan blue exclusion. […] The percentage of dead cells was determined for each cell line.

As usually defined, the IC50 is the concentration at which inhibition is half-maximal.

Turning to `N.N.[Cl][Pt][Cl]` [cisplatin, cisdiammine-dichloro-platinum, reference compound], 5 µM corresponded to half-maximal inhibition (IC50).
